Assay results from patent CN114920842A.
Results are given in words; binding and its absence hold for the method and conditions named. Some entries that bind do so weakly or less than the wild type.

Molecular target: T1, 重组人PLVAP/PV-1蛋白 (human) (UniProt Q9BX97)
T1 sequence (looked up): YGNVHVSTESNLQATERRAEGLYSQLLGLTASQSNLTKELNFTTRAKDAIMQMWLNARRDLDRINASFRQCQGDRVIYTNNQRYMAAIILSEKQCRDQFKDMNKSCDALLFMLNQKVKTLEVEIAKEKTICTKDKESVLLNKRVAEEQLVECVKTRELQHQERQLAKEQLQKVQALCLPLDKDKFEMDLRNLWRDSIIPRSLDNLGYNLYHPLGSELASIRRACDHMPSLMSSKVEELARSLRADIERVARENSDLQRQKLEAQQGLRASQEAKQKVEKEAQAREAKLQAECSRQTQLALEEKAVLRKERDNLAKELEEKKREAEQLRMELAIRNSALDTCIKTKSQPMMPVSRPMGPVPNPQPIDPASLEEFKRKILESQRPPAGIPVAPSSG
Test: SPR, Biacore T200, as in Example 2

Row | Binder | binding
1 | 抗体亚型为IgG1(N297A)的抗体HLPV-P03 (antibody, V domains shown, not shown: a dimerising Fc or GST) VH: QVQLVQSGAEVKKPGASVKVSCKASGYTFEDYYMYWVRQAPGQGLEWIGEVNPTQGDVNFNEMFKSRVTMTVDTSTSTAYMELSSLRSEDTAVYYCTSIFYWGQGTLVTVSS VL: DIVMTQSPSSLSASVGDRVTITCKASQDIKYQLSWYQQKPGKAPKTLIYYATFLADGVPSRFSGSGSGQEFTLTISSLQPEDFATYYCVQHDDRPFTFGQGTKLEIK | binds
2 | 抗体亚型为IgG4(S228P)的抗体HLPV-P05 (antibody, V domains shown, not shown: a dimerising Fc or GST) VH: QVQLVQSGAEVKKPGASVKVSCKASGYTFTDYYMYWVRQAPGQGLEWIGEINPTQGDVNFNEMFKSRVTMTVDTSTSTAYMELSSLRSEDTAVYYCTSIFYWGQGTLVTVSS VL: DIVMTQSPSSLSASVGDRVTITCKASQDIKYQLTWYQQKPGKAPKTLIYYATDLADGVPSRFSGSGSGQEFTLTISSLQPEDFATYYCVQHDNRPFTFGQGTKLEIK | binds
3 | 抗体亚型为IgG4(S228P)的抗体HLPV-P03 (antibody, V domains shown, not shown: a dimerising Fc or GST) VH: QVQLVQSGAEVKKPGASVKVSCKASGYTFEDYYMYWVRQAPGQGLEWIGEVNPTQGDVNFNEMFKSRVTMTVDTSTSTAYMELSSLRSEDTAVYYCTSIFYWGQGTLVTVSS VL: DIVMTQSPSSLSASVGDRVTITCKASQDIKYQLSWYQQKPGKAPKTLIYYATFLADGVPSRFSGSGSGQEFTLTISSLQPEDFATYYCVQHDDRPFTFGQGTKLEIK | binds
4 | 抗体亚型为IgG4(S228P)的抗体HLPV-P11 (antibody, V domains shown, not shown: a dimerising Fc or GST) VH: QVQLVQSGAEVKKPGASVKVSCKASGYTFTDYYMYWVRQAPGQGLEWIGEINPTQGDVNFNEMFKSRVTMTVDTSTSTAYMELSSLRSEDTAVYYCTTIFYWGQGTLVTVSS VL: DIVMTQSPSSLSASVGDRVTITCKASQDIKYQLSWYQQKPGKAPKTLIYYATDLADGVPSRFSGSGSGQEFTLTISSLQPEDFATYYCVQHDDRPFSFGQGTKLEIK | binds
5 | 抗体亚型为IgG4(S228P)的抗体HLPV-P14 (antibody, V domains shown, not shown: a dimerising Fc or GST) VH: QVQLVQSGAEVKKPGASVKVSCKASGYTFTNYYMYWVRQAPGQGLEWIGEINPTSGDVNFNEMFKSRVTMTVDTSTSTAYMELSSLRSEDTAVYYCTSIFYWGQGTLVTVSS VL: DIVMTQSPSSLSASVGDRVTITCKASQDIKYQLSWYQQKPGKAPKTLIYYAGDLADGVPSRFSGSGSGQEFTLTISSLQPEDFATYYCVQHDDRPFTFGQGTKLEIK | binds
6 | 抗体亚型为IgG4(S228P)的抗体HLPV-P10 (antibody, V domains shown, not shown: a dimerising Fc or GST) VH: QVQLVQSGAEVKKPGASVKVSCKASGYTFTDYYMYWVRQAPGQGLEWIGEINPTQGDVNFNEMFKSRVTMTVDTSTSTAYMELSSLRSEDTAVYYCTSIFYWGQGTLVTVSS VL: DIVMTQSPSSLSASVGDRVTITCKASQDIKYQLTWYQQKPGKAPKTLIYYATDLADGVPSRFSGSGSGQEFTLTISSLQPEDFATYYCVQHSDRPFTFGQGTKLEIK | binds
7 | 抗体亚型为IgG1(N297A)的抗体HLPV-P14 (antibody, V domains shown, not shown: a dimerising Fc or GST) VH: QVQLVQSGAEVKKPGASVKVSCKASGYTFTNYYMYWVRQAPGQGLEWIGEINPTSGDVNFNEMFKSRVTMTVDTSTSTAYMELSSLRSEDTAVYYCTSIFYWGQGTLVTVSS VL: DIVMTQSPSSLSASVGDRVTITCKASQDIKYQLSWYQQKPGKAPKTLIYYAGDLADGVPSRFSGSGSGQEFTLTISSLQPEDFATYYCVQHDDRPFTFGQGTKLEIK | binds
8 | 抗体亚型为IgG1(N297A)的抗体HLPV-P08 (antibody, V domains shown, not shown: a dimerising Fc or GST) VH: QVQLVQSGAEVKKPGASVKVSCKASGYTFTDYYMYWVRQAPGQGLEWIGEINPTQGDVNFNEMFKSRVTMTVDTSTSTAYMELSSLRSEDTAVYYCTTIFYWGQGTLVTVSS VL: DIVMTQSPSSLSASVGDRVTITCKASQDIKYQLTWYQQKPGKAPKTLIYYATDLADGVPSRFSGSGSGQEFTLTISSLQPEDFATYYCVSHDDRPFTFGQGTKLEIK | binds
9 | 抗体亚型为IgG1(N297A)的抗体HLPV-P11 (antibody, V domains shown, not shown: a dimerising Fc or GST) VH: QVQLVQSGAEVKKPGASVKVSCKASGYTFTDYYMYWVRQAPGQGLEWIGEINPTQGDVNFNEMFKSRVTMTVDTSTSTAYMELSSLRSEDTAVYYCTTIFYWGQGTLVTVSS VL: DIVMTQSPSSLSASVGDRVTITCKASQDIKYQLSWYQQKPGKAPKTLIYYATDLADGVPSRFSGSGSGQEFTLTISSLQPEDFATYYCVQHDDRPFSFGQGTKLEIK | binds
10 | 抗体亚型为IgG1(N297A)的抗体HLPV-P09 (antibody, V domains shown, not shown: a dimerising Fc or GST) VH: QVQLVQSGAEVKKPGASVKVSCKASGYTFTDYYMYWVRQAPGQGLEWIGEINPTQGDVNFNEMFKSRVTMTVDTSTSTAYMELSSLRSEDTAVYYCTTIFYWGQGTLVTVSS VL: DIVMTQSPSSLSASVGDRVTITCKASQDIGYQLSWYQQKPGKAPKTLIYYATDLADGVPSRFSGSGSGQEFTLTISSLQPEDFATYYCVQHYDRPFTFGQGTKLEIK | binds
11 | 抗体亚型为IgG4(S228P)的抗体HLPV-P09 (antibody, V domains shown, not shown: a dimerising Fc or GST) VH: QVQLVQSGAEVKKPGASVKVSCKASGYTFTDYYMYWVRQAPGQGLEWIGEINPTQGDVNFNEMFKSRVTMTVDTSTSTAYMELSSLRSEDTAVYYCTTIFYWGQGTLVTVSS VL: DIVMTQSPSSLSASVGDRVTITCKASQDIGYQLSWYQQKPGKAPKTLIYYATDLADGVPSRFSGSGSGQEFTLTISSLQPEDFATYYCVQHYDRPFTFGQGTKLEIK | binds
12 | 抗体亚型为IgG1(N297A)的抗体HLPV-P05 (antibody, V domains shown, not shown: a dimerising Fc or GST) VH: QVQLVQSGAEVKKPGASVKVSCKASGYTFTDYYMYWVRQAPGQGLEWIGEINPTQGDVNFNEMFKSRVTMTVDTSTSTAYMELSSLRSEDTAVYYCTSIFYWGQGTLVTVSS VL: DIVMTQSPSSLSASVGDRVTITCKASQDIKYQLTWYQQKPGKAPKTLIYYATDLADGVPSRFSGSGSGQEFTLTISSLQPEDFATYYCVQHDNRPFTFGQGTKLEIK | binds
13 | 抗体亚型为IgG1(N297A)的抗体HLPV-P10 (antibody, V domains shown, not shown: a dimerising Fc or GST) VH: QVQLVQSGAEVKKPGASVKVSCKASGYTFTDYYMYWVRQAPGQGLEWIGEINPTQGDVNFNEMFKSRVTMTVDTSTSTAYMELSSLRSEDTAVYYCTSIFYWGQGTLVTVSS VL: DIVMTQSPSSLSASVGDRVTITCKASQDIKYQLTWYQQKPGKAPKTLIYYATDLADGVPSRFSGSGSGQEFTLTISSLQPEDFATYYCVQHSDRPFTFGQGTKLEIK | binds
14 | 抗体亚型为IgG4(S228P)的抗体HLPV-P08 (antibody, V domains shown, not shown: a dimerising Fc or GST) VH: QVQLVQSGAEVKKPGASVKVSCKASGYTFTDYYMYWVRQAPGQGLEWIGEINPTQGDVNFNEMFKSRVTMTVDTSTSTAYMELSSLRSEDTAVYYCTTIFYWGQGTLVTVSS VL: DIVMTQSPSSLSASVGDRVTITCKASQDIKYQLTWYQQKPGKAPKTLIYYATDLADGVPSRFSGSGSGQEFTLTISSLQPEDFATYYCVSHDDRPFTFGQGTKLEIK | binds
